{"source": "PubChem BioAssay AID602196 (INSERM, 2012)", "purpose": "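Modifiers of cisplatin sensitivity in A549 cells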", "system": "human A549 lung cancer cells", "knock-down reagent": "siRNA pair against human genes", "time to read-out": "48 h transfection before cisplatin; time from cisplatin to read-out not stated", "challenge": "cisplatin at a dose killing half of control-siRNA cells; exact dose and duration not given", "measured": "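Cisplatin cell death as a shift from the 50% death seen with control siRNA; siRNAs toxic or growth-blocking alone scored 0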", "direction": "two-siRNA summed score (-2 to +2): higher = both siRNAs protect from cisplatin killing; -2 means both sensitise", "hit rule": "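siRNAs harmful alone (LDH or WST-1) get 0; others get +1 for less and -1 for more cisplatin killing; genes are active when the two siRNAs give the same sign, summing to ±2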", "meaning of the calls": "active = both siRNAs shift cisplatin killing the same way; inactive = no consistent shift, or siRNA harmful alone", "note": "Here is one part, drawn at random, of about 23,000 reagents tested. Of all reagents, 455 (2%) got an active call. 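Active includes both protection and sensitisation; some change values fall well beyond the stated -50 to +50 range.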 Reagents against one gene are numbered here. Not all columns of the deposit are shown. The record does not give: the amount of reagent."}
{"gene": "NXPE3", "reagent no.": 1, "two-siRNA summed score (-2 to +2)": 0, "Outcome": "inactive"}
{"gene": "CSK", "reagent no.": 1, "two-siRNA summed score (-2 to +2)": 0, "Outcome": "inactive"}
{"gene": "ZFYVE21", "reagent no.": 1, "two-siRNA summed score (-2 to +2)": 0, "Outcome": "inactive"}
{"gene": "RAB3B", "reagent no.": 1, "two-siRNA summed score (-2 to +2)": 0, "Outcome": "inactive"}
{"gene": "DEPDC1B", "reagent no.": 1, "two-siRNA summed score (-2 to +2)": 0, "Outcome": "inactive"}
{"gene": "HYOU1", "reagent no.": 1, "two-siRNA summed score (-2 to +2)": 0, "Outcome": "inactive"}
{"gene": "POLD4", "reagent no.": 1, "two-siRNA summed score (-2 to +2)": 0, "Outcome": "inactive"}
{"gene": "PPP4R4", "reagent no.": 1, "two-siRNA summed score (-2 to +2)": -1, "Outcome": "inactive"}
{"gene": "KIF17", "reagent no.": 1, "two-siRNA summed score (-2 to +2)": 0, "Outcome": "inactive"}
{"gene": "LOC389352", "reagent no.": 1, "two-siRNA summed score (-2 to +2)": 1, "Outcome": "inactive"}
{"gene": "PCTP", "reagent no.": 1, "two-siRNA summed score (-2 to +2)": 0, "Outcome": "inactive"}
{"gene": "TRIM41", "reagent no.": 1, "two-siRNA summed score (-2 to +2)": -1, "Outcome": "inactive"}
{"gene": "SOHLH1", "reagent no.": 1, "two-siRNA summed score (-2 to +2)": 0, "Outcome": "inactive"}
{"gene": "LINC03124", "reagent no.": 1, "two-siRNA summed score (-2 to +2)": 0, "Outcome": "inactive"}
{"gene": "LOC388344", "reagent no.": 1, "two-siRNA summed score (-2 to +2)": 0, "Outcome": "inactive"}
{"gene": "WWTR1", "reagent no.": 1, "two-siRNA summed score (-2 to +2)": 0, "Outcome": "inactive"}
{"gene": "LOC402574", "reagent no.": 1, "two-siRNA summed score (-2 to +2)": 0, "Outcome": "inactive"}
{"gene": "MOSPD3", "reagent no.": 1, "two-siRNA summed score (-2 to +2)": 0, "Outcome": "inactive"}
{"gene": "MECOM", "reagent no.": 1, "two-siRNA summed score (-2 to +2)": -1, "Outcome": "inactive"}
{"gene": "MECOM", "reagent no.": 2, "two-siRNA summed score (-2 to +2)": 0, "Outcome": "inactive"}
{"gene": "PACSIN2", "reagent no.": 1, "two-siRNA summed score (-2 to +2)": 1, "Outcome": "inactive"}
{"gene": "KCNE3", "reagent no.": 1, "two-siRNA summed score (-2 to +2)": 0, "Outcome": "inactive"}
{"gene": "LOC342969", "reagent no.": 1, "two-siRNA summed score (-2 to +2)": 1, "Outcome": "inactive"}
{"gene": "BAP1", "reagent no.": 1, "two-siRNA summed score (-2 to +2)": 0, "Outcome": "inactive"}
{"gene": "LOC401212", "reagent no.": 1, "two-siRNA summed score (-2 to +2)": 0, "Outcome": "inactive"}
{"gene": "NR2F2", "reagent no.": 1, "two-siRNA summed score (-2 to +2)": -1, "Outcome": "inactive"}
{"gene": "GLIPR1L2", "reagent no.": 1, "two-siRNA summed score (-2 to +2)": 0, "Outcome": "inactive"}
{"gene": "FAM228B", "reagent no.": 1, "two-siRNA summed score (-2 to +2)": 0, "Outcome": "inactive"}
{"gene": "KIAA1447", "reagent no.": 1, "two-siRNA summed score (-2 to +2)": 0, "Outcome": "inactive"}
{"gene": "LOC440090", "reagent no.": 1, "two-siRNA summed score (-2 to +2)": 0, "Outcome": "inactive"}
{"gene": "VGLL1", "reagent no.": 1, "two-siRNA summed score (-2 to +2)": 0, "Outcome": "inactive"}
{"gene": "MON1B", "reagent no.": 1, "two-siRNA summed score (-2 to +2)": 0, "Outcome": "inactive"}
{"gene": "FAM187B", "reagent no.": 1, "two-siRNA summed score (-2 to +2)": 0, "Outcome": "inactive"}
{"gene": "ZNF559", "reagent no.": 1, "two-siRNA summed score (-2 to +2)": 0, "Outcome": "inactive"}
{"gene": "MT2A", "reagent no.": 1, "two-siRNA summed score (-2 to +2)": 0, "Outcome": "inactive"}
{"gene": "LOC440194", "reagent no.": 1, "two-siRNA summed score (-2 to +2)": 1, "Outcome": "inactive"}
{"gene": "UGT2B10", "reagent no.": 1, "two-siRNA summed score (-2 to +2)": 1, "Outcome": "inactive"}
{"gene": "LOC440080", "reagent no.": 1, "two-siRNA summed score (-2 to +2)": 0, "Outcome": "inactive"}
{"gene": "ZNF721", "reagent no.": 1, "two-siRNA summed score (-2 to +2)": 0, "Outcome": "inactive"}
{"gene": "SSTR1", "reagent no.": 1, "two-siRNA summed score (-2 to +2)": 0, "Outcome": "inactive"}

3 neighbouring records already listed:
{"gene": "GLIPR1L2", "reagent no.": 1, "two-siRNA summed score (-2 to +2)": 0, "Outcome": "inactive"}
{"gene": "FAM228B", "reagent no.": 1, "two-siRNA summed score (-2 to +2)": 0, "Outcome": "inactive"}
{"gene": "KIAA1447", "reagent no.": 1, "two-siRNA summed score (-2 to +2)": 0, "Outcome": "inactive"}
